In article PMC8281026, “Peptide Based Inhibitors of Protein Binding to the Mitogen-Activated Protein Kinase Docking Groove” (Frontiers in Molecular Biosciences, 2021):
No constants are given. Whether binding was seen depends on the method and setting. Some binding calls cover weakened binding; strength is not graded here.

Protein sequences, listed by entry. Tags and fused reporters are not part of them.
UniProt Q16539: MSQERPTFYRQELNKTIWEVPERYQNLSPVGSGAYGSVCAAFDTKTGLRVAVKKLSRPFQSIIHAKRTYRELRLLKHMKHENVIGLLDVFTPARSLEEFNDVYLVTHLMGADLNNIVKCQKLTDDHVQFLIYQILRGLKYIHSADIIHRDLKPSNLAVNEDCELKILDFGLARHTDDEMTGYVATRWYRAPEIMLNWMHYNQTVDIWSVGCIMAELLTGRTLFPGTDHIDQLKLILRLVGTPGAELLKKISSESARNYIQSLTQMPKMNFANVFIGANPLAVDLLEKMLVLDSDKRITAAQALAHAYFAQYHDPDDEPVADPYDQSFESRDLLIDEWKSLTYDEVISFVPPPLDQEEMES
UniProt P28482: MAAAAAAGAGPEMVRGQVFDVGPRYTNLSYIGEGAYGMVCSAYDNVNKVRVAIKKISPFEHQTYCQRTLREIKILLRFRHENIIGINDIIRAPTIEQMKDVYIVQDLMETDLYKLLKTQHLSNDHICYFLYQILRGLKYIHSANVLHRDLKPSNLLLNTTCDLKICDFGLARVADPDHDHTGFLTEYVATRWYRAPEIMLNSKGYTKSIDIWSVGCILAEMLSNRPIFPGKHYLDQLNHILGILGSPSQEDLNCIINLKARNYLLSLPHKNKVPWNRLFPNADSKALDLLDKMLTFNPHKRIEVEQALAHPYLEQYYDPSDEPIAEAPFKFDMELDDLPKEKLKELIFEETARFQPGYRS

Tests used:
p38α = p38α (UniProt Q16539); assay: fluorescence polarisation; competitive: complex of the MAPK with 50 nM Cf-RHDF at 60-80% complex formation titrated with increasing unlabeled peptide; 20 mM Tris pH 8.0, 100 mM NaCl, 0.05% Brij35, 2 mM TCEP; 384-well black plates; triplicates; constants are called Kd in Table 1 and Ki in the …; both purified
ERK2 = ERK2 (UniProt P28482); assay: as above

- binding (p38α): binds
- binding (ERK2): binds
Binder: SLQRKKPPWLKLDIPSC (5(6)-carboxyfluorescein (Cf) on the N-terminus) [Cf-RHDF (Cf-…)]
